Measurements reported in PubChem BioAssay AID1259327 (Drosophila RNAi Screening Center, 2017)
Purpose: 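Knock-downs altering cellular ATP with no metal added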. Cell system: Drosophila S2R+ cells. Reagent: long dsRNA against Drosophila genes. Timing: 5 days (water added on day 4, read one day later). Conditions: water added as vehicle, no metal, one day before read-out. Measured: 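Luciferase ATP signal per well, normalised to plate mean, duplicate average converted to z-score across plates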. Scale: ATP z-score: higher = more total ATP than typical wells; ATP luminescence: higher = more total ATP. Rule for the call: 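a hit is any knock-down whose absolute ATP z-score is greater than 1.5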. Meaning of the calls: active = hit: ATP up or down; inactive = no clear ATP change.
The whole screen tested about 3,100 reagents; shown is an unselected part. In the full data, 378 (12%) are marked active. 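Hits include both directions; z-score sign shows ATP rise or fall; raw luminescence values are not plate-normalised.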 Entries without a mark were called inactive. The numbers tell different reagents against one gene apart. A plus sign joins genes that one reagent is predicted to hit. Not given: the amount of reagent.

5-HT2B (GeneID 41017) #1 — ATP z-score, duplicate mean = -0.506; ATP luminescence, replicate 1 (RLU) = 2.54e5; ATP luminescence, replicate 2 (RLU) = 7.64e5
5-HT2B (GeneID 41017) #2 — ATP z-score, duplicate mean = -0.819; ATP luminescence, replicate 1 (RLU) = 2.60e5; ATP luminescence, replicate 2 (RLU) = 6.80e5
5-HT2B (GeneID 41017) #3 — ATP z-score, duplicate mean = -0.764; ATP luminescence, replicate 1 (RLU) = 7.21e5; ATP luminescence, replicate 2 (RLU) = 7.90e5
PIG-U (GeneID 34185) #1 — ATP z-score, duplicate mean = 1.1; ATP luminescence, replicate 1 (RLU) = 5.36e5; ATP luminescence, replicate 2 (RLU) = 5.78e5
PIG-U (GeneID 34185) #2 — ATP z-score, duplicate mean = 0.234; ATP luminescence, replicate 1 (RLU) = 9.06e5; ATP luminescence, replicate 2 (RLU) = 8.01e5
drl (GeneID 44355) #1 — ATP z-score, duplicate mean = 0.877; ATP luminescence, replicate 1 (RLU) = 4.49e5; ATP luminescence, replicate 2 (RLU) = 6.38e5
drl (GeneID 44355) #2 — ATP z-score, duplicate mean = 0.0597; ATP luminescence, replicate 1 (RLU) = 1.01e6; ATP luminescence, replicate 2 (RLU) = 6.66e5
drl (GeneID 44355) #3 — ATP z-score, duplicate mean = -0.737; ATP luminescence, replicate 1 (RLU) = 4.80e5; ATP luminescence, replicate 2 (RLU) = 5.55e5
CG6126 (GeneID 41967) #1 — ATP z-score, duplicate mean = -0.0316; ATP luminescence, replicate 1 (RLU) = 7.28e5; ATP luminescence, replicate 2 (RLU) = 6.78e5
CG6126 (GeneID 41967) #2 — ATP z-score, duplicate mean = -1.23; ATP luminescence, replicate 1 (RLU) = 4.06e5; ATP luminescence, replicate 2 (RLU) = 3.40e5

The list goes on (2 carried over from the part before).
CG6126 (GeneID 41967) #1 — ATP z-score, duplicate mean = -0.0316; ATP luminescence, replicate 1 (RLU) = 7.28e5; ATP luminescence, replicate 2 (RLU) = 6.78e5
CG6126 (GeneID 41967) #2 — ATP z-score, duplicate mean = -1.23; ATP luminescence, replicate 1 (RLU) = 4.06e5; ATP luminescence, replicate 2 (RLU) = 3.40e5
CG8860 (GeneID 36310) #1 — ATP z-score, duplicate mean = 0.498; ATP luminescence, replicate 1 (RLU) = 6.95e5; ATP luminescence, replicate 2 (RLU) = 6.34e5
CG8860 (GeneID 36310) #2 — ATP z-score, duplicate mean = -0.164; ATP luminescence, replicate 1 (RLU) = 8.20e5; ATP luminescence, replicate 2 (RLU) = 8.40e5
CG10019 (GeneID 33600) — ATP z-score, duplicate mean = -0.565; ATP luminescence, replicate 1 (RLU) = 7.52e5; ATP luminescence, replicate 2 (RLU) = 8.09e5
Unc-115b + p24-2 — ATP z-score, duplicate mean = -0.388; ATP luminescence, replicate 1 (RLU) = 6.70e5; ATP luminescence, replicate 2 (RLU) = 6.61e5
NKCC (GeneID 40663) #1 — ATP z-score, duplicate mean = -0.457; ATP luminescence, replicate 1 (RLU) = 6.74e5; ATP luminescence, replicate 2 (RLU) = 6.91e5
NKCC (GeneID 40663) #2 — ATP z-score, duplicate mean = -0.159; ATP luminescence, replicate 1 (RLU) = 8.93e5; ATP luminescence, replicate 2 (RLU) = 8.58e5
Gp210 (GeneID 35512) #1 — ATP z-score, duplicate mean = -0.955; ATP luminescence, replicate 1 (RLU) = 5.71e5; ATP luminescence, replicate 2 (RLU) = 4.95e5
Gp210 (GeneID 35512) #2 — ATP z-score, duplicate mean = 0.985; ATP luminescence, replicate 1 (RLU) = 4.46e5; ATP luminescence, replicate 2 (RLU) = 5.86e5
Ulp1 (GeneID 32910) #1 — ATP z-score, duplicate mean = -1.3; ATP luminescence, replicate 1 (RLU) = 5.87e5; ATP luminescence, replicate 2 (RLU) = 5.56e5
Ulp1 (GeneID 32910) #2 — ATP z-score, duplicate mean = -1.04; ATP luminescence, replicate 1 (RLU) = 3.70e5; ATP luminescence, replicate 2 (RLU) = 4.20e5
Or33b (GeneID 34602) — ATP z-score, duplicate mean = 1.06; ATP luminescence, replicate 1 (RLU) = 8.88e5; ATP luminescence, replicate 2 (RLU) = 7.90e5
CG9270 (GeneID 35366) — ATP z-score, duplicate mean = -0.306; ATP luminescence, replicate 1 (RLU) = 6.87e5; ATP luminescence, replicate 2 (RLU) = 7.10e5
CG10171 (GeneID 39501) #1 — ATP z-score, duplicate mean = -0.503; ATP luminescence, replicate 1 (RLU) = 6.49e5; ATP luminescence, replicate 2 (RLU) = 7.06e5
CG10171 (GeneID 39501) #2 — ATP z-score, duplicate mean = 0.59; ATP luminescence, replicate 1 (RLU) = 9.32e5; ATP luminescence, replicate 2 (RLU) = 9.16e5
Slc45-1 (GeneID 39055) — ATP z-score, duplicate mean = -0.802; ATP luminescence, replicate 1 (RLU) = 8.28e5; ATP luminescence, replicate 2 (RLU) = 7.55e5
CG33296 (GeneID 2768941) #1 — ATP z-score, duplicate mean = -0.262; ATP luminescence, replicate 1 (RLU) = 6.72e5; ATP luminescence, replicate 2 (RLU) = 7.59e5
CG33296 (GeneID 2768941) #2 — ATP z-score, duplicate mean = 0.163; ATP luminescence, replicate 1 (RLU) = 8.81e5; ATP luminescence, replicate 2 (RLU) = 8.07e5
CG11162 (GeneID 32325) #1 — ATP z-score, duplicate mean = 0.178; ATP luminescence, replicate 1 (RLU) = 5.52e5; ATP luminescence, replicate 2 (RLU) = 6.38e5
CG11162 (GeneID 32325) #2 — ATP z-score, duplicate mean = -1.04; ATP luminescence, replicate 1 (RLU) = 4.14e5; ATP luminescence, replicate 2 (RLU) = 3.73e5
Pkd2 (GeneID 34651) #1 — ATP z-score, duplicate mean = -0.402; ATP luminescence, replicate 1 (RLU) = 6.92e5; ATP luminescence, replicate 2 (RLU) = 6.75e5
Pkd2 (GeneID 34651) #2 — ATP z-score, duplicate mean = 0.64; ATP luminescence, replicate 1 (RLU) = 7.85e5; ATP luminescence, replicate 2 (RLU) = 8.74e5
